Data on 30 sequences can be found in PubChem BioAssay AID1347426 (Functional Genomics Laboratory (NCATS/FGL), 2020).

Hit rate of the full screen: of about 31,000 sequences, about 1,400 (4.5%) were called active.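 Rule for the calls: active = median seed-adjusted z-score above 1 or below -1; inactive = the rest.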 Some of the results follow.

The assay in a line: Novel Modifiers of Survival Motor Neuron (SMN) Protein: Gene Identification via Genome-wide siRNA Screen.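 Note: luminescence tracks full-length SMN protein made from the SMN2 reporter.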 The following applies: HEK293T SMN2-luciferase reporter, siRNA knockdown, 72 h; actives lie on both sides. The gist of the method: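 HEK293T cells stably expressing an SMN2 splicing/cDNA-luciferase reporter were reverse-transfected with a druggable-genome siRNA library and read by luminescence at 72 hours; hits defined by MAD score above 1.0 or below -1.0.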
On the technique in general: A reporter such as luciferase makes a cellular process visible.
For CCUCAACUCUUAUAUUACATT against ZNF595, the median seed-adjusted z-score was inactive: 0.102.

In the case of GCACCAGCGAGAGAAGAGATT against PLA2G3, the median seed-adjusted z-score is inactive: 0.543.

GGCUAUAACCUCUCUAUCATT against SLC2A11: the median seed-adjusted z-score is inactive: 0.

Turning to CACGCUCACAGAGAAGUUUTT against MEGF6, the median seed-adjusted z-score was inactive: 0.

CAUCCAGCUAUUUAUGAUATT against SAAL1: the median seed-adjusted z-score was inactive: 0.00224.

For CCACCGUGGAAGGACAGAATT against SHARPIN, the median seed-adjusted z-score is inactive: -0.00778.

In the case of CAGUGAGACAAUUAUGAAATT against MTHFD2, the median seed-adjusted z-score is inactive: -0.146.

Consider GCAACAAGACGGAAUUGGATT against SFRS3, for which the median seed-adjusted z-score is active: 2.74.

Take GGUCUAUACAGAGUCAAUATT against MRCL3: the median seed-adjusted z-score was inactive: -0.00909.

Take GCUCUUUCCAAACUAGAAATT against KCNT1: the median seed-adjusted z-score was inactive: 0.379.

As to GCAUAUGCUUGACAGCUUUTT against STK36, the median seed-adjusted z-score is inactive: -0.0489.

Turning to GGAAUAAUUCAGUACUUAATT against ERAP2, the median seed-adjusted z-score is inactive: 0.081.

As for CGAUAACGACAGUAAAUCATT against CACNA2D1, the median seed-adjusted z-score is inactive: -0.541.

Turning to GCUUAUUUAUGUAUCAAUATT against ADRB1, the median seed-adjusted z-score was active: 1.06.

As to AGAUCUCCCUUAAGAGCAATT against E2F1, the median seed-adjusted z-score is inactive: -0.211.

Consider GGCUAACAUUAGAACACUUTT against MED6, for which the median seed-adjusted z-score is active: -2.15.

Turning to CCAGAUUACUAUGUCGGAATT against IPO7, the median seed-adjusted z-score was inactive: -0.143.

For CCACAUUUGAGUUUGAGAATT against PRSS21, the median seed-adjusted z-score is inactive: -0.306.

Take GCACCAUCGUCCUUGAACATT against DUOX1: the median seed-adjusted z-score is active: -1.09.

Turning to GCAUCAUUGAGCUCACAGATT against MEX3B, the median seed-adjusted z-score is inactive: -0.0576.

On to GGAUUAGGAGCUUUCGUUATT against TUBD1, for which the median seed-adjusted z-score was inactive: -0.00491.

In the case of GGAGCAGGGUUCAUGCAUATT against SLC39A2, the median seed-adjusted z-score was inactive: 0.0602.

For the sequence ACUCAUUAAACUACUCAAATT against ANAPC11, the median seed-adjusted z-score is inactive: -0.581.

CCCAAGACGUGUGAUAUCATT against UBE2M: the median seed-adjusted z-score was inactive: 0.0974.

For CCAUCGAGCUCGUGAAGAATT against ACVR2B, the median seed-adjusted z-score is inactive: 0.824.

As to GAUAAGAUUUGUUUAGUGATT against BLMH, the median seed-adjusted z-score was inactive: -0.156.

Take UGAACGCAGUCAUCCGGAATT against MAPK15: the median seed-adjusted z-score was inactive: 0.0724.

AAUUCAAGCUAUGAAGAUATT against ACO2: the median seed-adjusted z-score was active: -1.57.

For UGGGACUGGUUGACACAAATT against THA1P, the median seed-adjusted z-score is inactive: -0.509.

Take GGAUAUCUUCUAUGAUCUATT against SMAD7: the median seed-adjusted z-score was inactive: -0.25.
